This assay has as its system Enterococcus faecium 64/3. The assay is described as follows: MIC, micro-broth dilution test according to DIN 58 940 (Part 8). The format is cell-based. To be noted: 64/3, read-out: MIC, Enterococcus faecium 64/3. How it is done: The minimum inhibiting concentration (MIC) of the compounds was tested, in a micro-broth dilution test according to DIN 58 940 (Part 8), against the following bacterial strains: Staphylococcus aureus, strains 8325-4 (a sensitive Staphylococcus aureus strain which is representative of the species), NCTC 6571 (a sensitive international control strain), 108/83 (an "old" MRSA without quinolone-resistance), 134/94 (a "new" MRSA, with quinolone-resistance), Staphylococcus epidermidis CCM 2124 (a sensitive control strain), Enterococcus faecium 70/90 (a vancomycin-resistant strain) and 64/3 (a sensitive strain).

Molecules are shown by their SMILES.

Take `O=C(O)c1cn(C2CC2)c2cc(N3CCNCC3)c(F)cc2c1=O` [ciprofloxacin]: the MIC was less than 250 µg/mL.

Values taken from US6124290A, “Polycyclic phthalazine compounds and their use” (Gruenenthal GmbH, priority 1996, dated 2000).
